Laboratory results from the supplement of paper PMC10849652.
The list shows a part of the results.

Protein sequences, listed by entry. Tags and fused reporters are not part of them. Lines headed by an entry give the natural chain unless they say otherwise; changes in a name come on top.
UniProt Q96DM3: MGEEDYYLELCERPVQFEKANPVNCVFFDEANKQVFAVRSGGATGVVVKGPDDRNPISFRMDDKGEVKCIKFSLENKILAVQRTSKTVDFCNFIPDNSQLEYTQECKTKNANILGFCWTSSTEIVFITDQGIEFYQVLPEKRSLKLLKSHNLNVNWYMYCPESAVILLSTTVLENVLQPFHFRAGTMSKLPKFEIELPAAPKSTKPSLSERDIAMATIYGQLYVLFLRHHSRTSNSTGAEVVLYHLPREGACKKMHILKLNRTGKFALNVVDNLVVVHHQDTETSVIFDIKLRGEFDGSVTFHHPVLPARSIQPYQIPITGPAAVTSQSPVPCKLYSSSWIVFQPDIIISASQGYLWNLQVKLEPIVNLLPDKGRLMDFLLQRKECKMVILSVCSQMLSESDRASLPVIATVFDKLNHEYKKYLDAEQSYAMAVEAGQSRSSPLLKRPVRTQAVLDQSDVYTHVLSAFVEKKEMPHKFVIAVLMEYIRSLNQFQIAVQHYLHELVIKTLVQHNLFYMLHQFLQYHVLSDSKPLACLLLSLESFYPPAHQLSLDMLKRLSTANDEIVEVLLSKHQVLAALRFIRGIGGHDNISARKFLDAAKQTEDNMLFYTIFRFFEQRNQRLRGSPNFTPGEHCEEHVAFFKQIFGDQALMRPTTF
UniProt Q99496: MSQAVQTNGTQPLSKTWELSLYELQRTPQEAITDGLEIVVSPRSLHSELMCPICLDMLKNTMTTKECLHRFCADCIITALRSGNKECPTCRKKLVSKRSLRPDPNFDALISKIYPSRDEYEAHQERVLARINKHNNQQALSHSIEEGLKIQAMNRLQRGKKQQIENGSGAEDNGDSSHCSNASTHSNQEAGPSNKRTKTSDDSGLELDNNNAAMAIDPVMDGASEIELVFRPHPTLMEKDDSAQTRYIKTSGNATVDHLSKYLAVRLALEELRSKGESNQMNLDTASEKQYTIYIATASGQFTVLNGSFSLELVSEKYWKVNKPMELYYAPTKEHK
UniProt Q8IZV5: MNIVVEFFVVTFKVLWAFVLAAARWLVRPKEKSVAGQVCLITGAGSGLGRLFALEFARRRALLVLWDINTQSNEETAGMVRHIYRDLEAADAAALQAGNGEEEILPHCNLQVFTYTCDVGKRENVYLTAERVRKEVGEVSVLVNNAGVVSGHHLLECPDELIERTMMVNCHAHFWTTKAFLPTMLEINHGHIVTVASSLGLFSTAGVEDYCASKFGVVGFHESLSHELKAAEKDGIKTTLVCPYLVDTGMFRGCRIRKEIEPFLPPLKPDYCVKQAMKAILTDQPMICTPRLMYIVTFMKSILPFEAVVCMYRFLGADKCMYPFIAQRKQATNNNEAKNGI
UniProt Q9BVS4: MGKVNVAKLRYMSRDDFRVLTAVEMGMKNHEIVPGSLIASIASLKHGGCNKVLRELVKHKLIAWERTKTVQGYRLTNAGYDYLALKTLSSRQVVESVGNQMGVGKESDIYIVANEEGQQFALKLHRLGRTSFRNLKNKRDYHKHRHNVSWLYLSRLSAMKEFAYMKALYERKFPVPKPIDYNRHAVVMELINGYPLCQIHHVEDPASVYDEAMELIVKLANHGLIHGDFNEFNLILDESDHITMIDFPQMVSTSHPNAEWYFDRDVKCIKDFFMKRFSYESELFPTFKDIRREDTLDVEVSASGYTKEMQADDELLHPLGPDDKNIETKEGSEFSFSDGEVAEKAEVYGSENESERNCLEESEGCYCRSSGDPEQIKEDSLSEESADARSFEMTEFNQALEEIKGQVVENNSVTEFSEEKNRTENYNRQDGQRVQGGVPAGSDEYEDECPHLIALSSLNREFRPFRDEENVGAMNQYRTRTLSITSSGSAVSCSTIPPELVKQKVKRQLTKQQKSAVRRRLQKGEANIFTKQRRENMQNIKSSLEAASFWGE
UniProt P62877, whole entry, looked up: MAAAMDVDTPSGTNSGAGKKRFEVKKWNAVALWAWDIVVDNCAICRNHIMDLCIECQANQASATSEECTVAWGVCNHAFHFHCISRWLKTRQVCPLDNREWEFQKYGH
UniProt O14730: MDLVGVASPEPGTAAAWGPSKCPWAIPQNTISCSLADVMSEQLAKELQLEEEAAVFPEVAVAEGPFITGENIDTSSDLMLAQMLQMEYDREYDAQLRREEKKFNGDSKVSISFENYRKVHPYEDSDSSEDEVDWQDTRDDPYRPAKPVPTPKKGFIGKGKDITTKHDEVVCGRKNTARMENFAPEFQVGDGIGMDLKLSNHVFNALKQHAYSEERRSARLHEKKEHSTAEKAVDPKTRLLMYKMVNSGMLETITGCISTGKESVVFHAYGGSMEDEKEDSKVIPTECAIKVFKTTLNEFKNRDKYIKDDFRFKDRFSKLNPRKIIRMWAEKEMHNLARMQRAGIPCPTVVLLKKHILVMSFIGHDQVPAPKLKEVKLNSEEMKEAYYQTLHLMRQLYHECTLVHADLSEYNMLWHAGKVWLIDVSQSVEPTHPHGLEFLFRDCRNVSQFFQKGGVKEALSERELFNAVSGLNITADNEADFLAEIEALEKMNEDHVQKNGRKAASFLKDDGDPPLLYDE
UniProt Q9UKL0, whole entry, looked up: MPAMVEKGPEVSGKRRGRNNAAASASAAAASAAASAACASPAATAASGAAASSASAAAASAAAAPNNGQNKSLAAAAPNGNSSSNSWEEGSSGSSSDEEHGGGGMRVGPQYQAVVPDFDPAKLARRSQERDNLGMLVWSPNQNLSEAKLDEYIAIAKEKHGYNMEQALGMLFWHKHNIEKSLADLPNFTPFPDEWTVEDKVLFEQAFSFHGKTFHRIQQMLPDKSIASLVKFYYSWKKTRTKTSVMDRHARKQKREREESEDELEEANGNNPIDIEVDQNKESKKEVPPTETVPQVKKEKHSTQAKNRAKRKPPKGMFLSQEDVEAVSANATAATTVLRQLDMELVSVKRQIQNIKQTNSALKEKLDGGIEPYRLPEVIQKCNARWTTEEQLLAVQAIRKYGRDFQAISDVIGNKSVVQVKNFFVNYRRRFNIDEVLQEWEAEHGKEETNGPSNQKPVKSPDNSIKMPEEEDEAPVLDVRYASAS
UniProt O15258: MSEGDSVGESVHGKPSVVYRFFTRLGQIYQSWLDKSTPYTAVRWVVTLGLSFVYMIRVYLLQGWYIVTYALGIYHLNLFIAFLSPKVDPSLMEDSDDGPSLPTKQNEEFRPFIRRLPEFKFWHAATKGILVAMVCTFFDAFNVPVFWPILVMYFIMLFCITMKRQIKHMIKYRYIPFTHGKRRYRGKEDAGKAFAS
UniProt Q9UBS8: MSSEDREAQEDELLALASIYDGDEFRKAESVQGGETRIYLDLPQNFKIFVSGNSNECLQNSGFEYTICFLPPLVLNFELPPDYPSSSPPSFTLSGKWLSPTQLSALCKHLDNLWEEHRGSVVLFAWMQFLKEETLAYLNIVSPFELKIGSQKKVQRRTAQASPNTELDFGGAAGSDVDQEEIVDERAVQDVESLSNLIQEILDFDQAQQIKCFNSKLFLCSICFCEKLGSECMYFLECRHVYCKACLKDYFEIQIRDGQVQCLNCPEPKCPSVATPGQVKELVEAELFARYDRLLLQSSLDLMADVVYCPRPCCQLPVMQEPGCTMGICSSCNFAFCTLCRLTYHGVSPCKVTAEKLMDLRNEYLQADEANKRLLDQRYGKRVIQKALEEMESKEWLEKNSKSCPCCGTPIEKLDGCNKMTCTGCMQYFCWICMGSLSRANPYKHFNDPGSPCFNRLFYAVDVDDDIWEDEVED
UniProt P38159: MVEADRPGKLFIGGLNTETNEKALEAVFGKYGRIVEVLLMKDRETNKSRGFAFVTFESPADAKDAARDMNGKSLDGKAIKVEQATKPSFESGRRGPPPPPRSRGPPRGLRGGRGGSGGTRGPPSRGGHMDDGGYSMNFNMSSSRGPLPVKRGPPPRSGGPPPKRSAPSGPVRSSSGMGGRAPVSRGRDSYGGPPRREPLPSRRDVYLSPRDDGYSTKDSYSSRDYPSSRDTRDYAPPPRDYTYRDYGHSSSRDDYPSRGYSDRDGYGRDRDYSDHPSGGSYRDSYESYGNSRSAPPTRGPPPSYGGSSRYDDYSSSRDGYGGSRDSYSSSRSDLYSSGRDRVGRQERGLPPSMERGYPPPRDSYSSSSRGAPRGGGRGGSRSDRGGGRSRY
UniProt Q9Y508: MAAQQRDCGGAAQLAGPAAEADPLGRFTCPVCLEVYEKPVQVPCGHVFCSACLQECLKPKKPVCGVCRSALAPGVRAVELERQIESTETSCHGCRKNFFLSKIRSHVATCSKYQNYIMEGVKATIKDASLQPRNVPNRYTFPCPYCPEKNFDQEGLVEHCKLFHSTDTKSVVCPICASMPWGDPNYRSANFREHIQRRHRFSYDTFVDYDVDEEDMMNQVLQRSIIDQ
UniProt Q5TBB1: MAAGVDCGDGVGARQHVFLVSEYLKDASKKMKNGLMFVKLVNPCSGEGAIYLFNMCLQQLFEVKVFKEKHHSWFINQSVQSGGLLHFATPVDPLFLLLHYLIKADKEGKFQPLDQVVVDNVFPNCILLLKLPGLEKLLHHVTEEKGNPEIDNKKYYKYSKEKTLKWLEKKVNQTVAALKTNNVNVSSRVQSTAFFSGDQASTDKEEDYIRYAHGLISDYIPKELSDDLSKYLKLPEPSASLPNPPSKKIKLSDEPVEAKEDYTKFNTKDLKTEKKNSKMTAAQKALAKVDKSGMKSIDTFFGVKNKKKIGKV

Assays:
Experiment in all cases: log2 fold change, soluble protein after heating vs DMSO (PISA); higher = thermal stabilisation; K562 cells, 10 uM, 30 min; active = over 0.2 and 3.5 SD of the protein, either way, in both replicates (recomputed)
[1] = compound: NC(=O)Nc1cc(-c2cccc(F)c2)sc1C(=O)N[C@H]1CCCNC1
Procedure, shortened: (§1)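 K562 cells at 2×10^6 cells/mL were treated with 10 μM compound for 30 min. Aliquots were heated for 3 min across 48°C-58°C, pooled, and extracted in PBS with 0.5% NP-40 at 4°C; soluble protein was the supernatant after 21,000xg for 90 min. Soluble protein was quantified by TMTpro 16plex LC-MS/MS with channel sums equalised, and reported as log2 fold change in thermal stability against DMSO controls, with values from duplicates.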

[2] = compound: NC(=O)c1cnc(N[C@@H]2CCCC[C@@H]2N)nc1Nc1cccc(-n2nccn2)c1
Procedure, shortened: as §1

[3] = compound: NC1(c2ccc(-c3nc4ccn5c(=O)[nH]nc5c4cc3-c3ccccc3)cc2)CCC1
Procedure, shortened: as §1

[4] = compound: NCC(=O)Nc1ccc(-n2nc(C(F)(F)F)cc2-c2ccc3c(ccc4ccccc43)c2)cc1
Procedure, shortened: as §1

entinostat = compound: Nc1ccccc1NC(=O)c1ccc(CNC(=O)OCc2cccnc2)cc1 [entinostat]
Procedure, shortened: as §1

vorinostat = compound: O=C(CCCCCCC(=O)Nc1ccccc1)NO [vorinostat]
Procedure, shortened: as §1

citarinostat = compound: O=C(CCCCCCNC(=O)c1cnc(N(c2ccccc2)c2ccccc2Cl)nc1)NO [citarinostat]
Procedure, shortened: as §1

silmitasertib = compound: O=C(O)c1ccc2c(c1)nc(Nc1cccc(Cl)c1)c1ccncc12 [silmitasertib]
Procedure, shortened: as §1

[5] = compound: O=C1NC(=O)C(c2cnc3ccccn23)=C1c1cn2c3c(cc(F)cc13)CN(C(=O)N1CCCCC1)CC2
Procedure, shortened: as §1

[6] = compound: c1cc(OCCN2CCCCC2)cc(-c2n[nH]c3ccc(-c4nnc[nH]4)cc23)c1
Procedure, shortened: as §1

entospletinib = compound: c1cn2cc(-c3ccc4cn[nH]c4c3)nc(Nc3ccc(N4CCOCC4)cc3)c2n1 [entospletinib]
Procedure, shortened: as §1

Measured: log2 fold change

RMC1 (UniProt Q96DM3)
active: [3] -0.384
inactive: [1] -0.026 | [2] -0.141 | [4] -0.039 | entinostat 0.048 | vorinostat 0.017 | citarinostat 0.04 | silmitasertib 0.025 | [5] -0.036 | [6] -0.045

RNF2 (UniProt Q99496)
inactive: [1] -0.04 | [2] -0.023 | [3] -0.003 | [4] -0.051 | entinostat 0.102 | vorinostat -0.048 | citarinostat 0.054 | silmitasertib 0.003 | [5] -0.014 | [6] -0.102

RDH10 (UniProt Q8IZV5)
inactive: [1] -0.033 | [2] -0.017 | [3] -0.016 | [4] 0.015 | entinostat 0.015 | vorinostat -0.069 | citarinostat -0.019 | silmitasertib -0.097 | [5] -0.039 | [6] 0.012

RIOK2 (UniProt Q9BVS4)
active: [2] 0.351
inactive: [1] -0.008 | [3] 0.04 | [4] 0.027 | entinostat -0.041 | vorinostat -0.044 | citarinostat -0.067 | silmitasertib 0.018 | [5] 0.086 | [6] -0.071

RBM8A (UniProt Q9Y5S9)
inactive: [1] -0.044 | [2] 0.075 | [3] -0.045 | [4] -0.068 | entinostat 0.037 | vorinostat -0.025 | citarinostat 0.03 | silmitasertib 0.011 | [5] -0.019 | [6] -0.076

RBX1 (UniProt P62877)
inactive: [1] -0.065 | [2] -0.013 | [3] 0.438 | [4] -0.009 | entinostat -0.042 | vorinostat 0.011 | citarinostat 0.042 | silmitasertib -0.172 | [5] 0 | [6] -0.102 | entospletinib -0.033

RIOK3 (UniProt O14730)
inactive: [1] 0.047 | [2] -0.005 | [3] -0.061 | [4] 0.015 | entinostat -0.005 | vorinostat 0.043 | citarinostat 0.036 | silmitasertib -0.011 | [5] 0.057 | [6] -0.046

RCOR1 (UniProt Q9UKL0)
inactive: [1] 0.035 | [2] -0.104 | [3] -0.03 | [4] -0.133 | entinostat 0.189 | vorinostat 0.082 | citarinostat 0.007 | silmitasertib 0.016 | [5] -0.043 | [6] -0.103

Copied from the listing (3 entries):
RDH10 (UniProt Q8IZV5)
inactive: [1] -0.033 | [2] -0.017 | [3] -0.016 | [4] 0.015 | entinostat 0.015 | vorinostat -0.069 | citarinostat -0.019 | silmitasertib -0.097 | [5] -0.039 | [6] 0.012

RIOK2 (UniProt Q9BVS4)
active: [2] 0.351
inactive: [1] -0.008 | [3] 0.04 | [4] 0.027 | entinostat -0.041 | vorinostat -0.044 | citarinostat -0.067 | silmitasertib 0.018 | [5] 0.086 | [6] -0.071

RBM8A (UniProt Q9Y5S9)
inactive: [1] -0.044 | [2] 0.075 | [3] -0.045 | [4] -0.068 | entinostat 0.037 | vorinostat -0.025 | citarinostat 0.03 | silmitasertib 0.011 | [5] -0.019 | [6] -0.076

Further entries.

RER1 (UniProt O15258)
inactive: [1] -0.028 | [2] 0.085 | [3] 0.032 | [4] 0.03 | entinostat -0.011 | vorinostat -0.072 | citarinostat 0.009 | silmitasertib -0.023 | [5] -0.005 | [6] -0.017 | entospletinib 0.076

RNF14 (UniProt Q9UBS8)
inactive: [1] -0.016 | [2] -0.054 | [3] -0.157 | [4] 0.008 | entinostat 0.037 | vorinostat 0.021 | citarinostat -0.006 | silmitasertib 0.003 | [5] -0.127 | [6] -0.007

RNF213 isoform 4 (UniProt Q63HN8)
inactive: [1] 0.122 | [2] -0.12 | [3] -0.098 | [4] -0.102 | entinostat 0.01 | vorinostat 0.035 | citarinostat -0.241 | silmitasertib 0.058 | [5] 0.1 | [6] -0.314 | entospletinib 0.109

RBMX (UniProt P38159)
inactive: [1] 0.059 | [2] 0.121 | [3] 0.336 | [4] 0.005 | entinostat 0 | vorinostat 0.021 | citarinostat -0.038 | silmitasertib 0.077 | [5] 0.122 | [6] -0.274 | entospletinib 0.003

RNF114 (UniProt Q9Y508)
inactive: [1] -0.025 | [2] -0.027 | [3] 0.009 | [4] 0.009 | entinostat -0.02 | vorinostat -0.035 | citarinostat 0.056 | silmitasertib -0.008 | [5] -0.064 | [6] -0.016 | entospletinib 0.022

RNASEH2B (UniProt Q5TBB1)
inactive: [1] 0 | [2] -0.047 | [3] -0.254 | [4] -0.144 | entinostat 0.087 | vorinostat 0.116 | citarinostat 0.184 | silmitasertib -0.083 | [5] -0.267 | [6] 0.037 | entospletinib -0.086
